From US20220259297A1
These are yes or no findings as the source states them, for the method shown. Some binding calls cover weakened binding; strength is not graded here. Tags and fused reporters may be left off the sequences shown.

Amino acid sequences for entries named in this document (tags omitted). Residues count along the entry.
UniProt P22004, residues 382-513: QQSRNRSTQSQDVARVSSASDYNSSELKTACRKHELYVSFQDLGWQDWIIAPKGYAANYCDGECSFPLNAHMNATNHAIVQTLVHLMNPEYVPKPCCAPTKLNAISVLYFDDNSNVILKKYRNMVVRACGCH
UniProt P22003, residues 317-454: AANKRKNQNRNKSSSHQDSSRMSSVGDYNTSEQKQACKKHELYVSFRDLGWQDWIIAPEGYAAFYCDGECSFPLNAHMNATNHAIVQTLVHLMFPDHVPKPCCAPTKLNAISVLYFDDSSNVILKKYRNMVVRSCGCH

Key:
[1] = target: GDF8, O14793; assay: Biacore (SPR), ligands ranked by off-rate koff; conditions: remark: other sources report otherwise
[2] = target: BMP6 (UniProt P22004); assay: SPR (Biacore), FIG. 15
[3] = target: T1, GDF8 (UniProt O14793); assay: SPR (Biacore), FIG. 15
T1 sequence (looked up): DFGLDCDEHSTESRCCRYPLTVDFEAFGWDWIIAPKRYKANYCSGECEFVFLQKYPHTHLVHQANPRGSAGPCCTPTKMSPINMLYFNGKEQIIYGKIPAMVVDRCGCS

[4] = target: T2, GDF11 (UniProt O95390); assay: SPR (Biacore), FIG. 15
T2 sequence (looked up): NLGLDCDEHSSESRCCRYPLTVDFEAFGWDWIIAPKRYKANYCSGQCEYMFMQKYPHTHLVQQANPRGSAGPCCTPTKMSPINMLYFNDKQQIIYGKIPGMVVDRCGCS

[5] = target: T3, GDF3 (UniProt Q9NR23); assay: SPR (Biacore), FIG. 15
T3 sequence (looked up): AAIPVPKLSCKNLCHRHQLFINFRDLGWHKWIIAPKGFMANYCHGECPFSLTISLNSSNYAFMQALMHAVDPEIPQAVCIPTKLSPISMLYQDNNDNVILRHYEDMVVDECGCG

[6] = target: T4, BMP10 (UniProt O95393); assay: SPR (Biacore), FIG. 15
T4 sequence (looked up): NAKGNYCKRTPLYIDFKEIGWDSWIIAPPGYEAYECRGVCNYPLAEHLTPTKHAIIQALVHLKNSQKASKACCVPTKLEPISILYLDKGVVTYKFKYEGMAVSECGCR

[7] = target: BMP5 (UniProt P22003); assay: SPR (Biacore), FIG. 15
[8] = target: T5, BMP9 (UniProt Q9UK05); assay: SPR (Biacore), FIG. 15
T5 sequence (looked up): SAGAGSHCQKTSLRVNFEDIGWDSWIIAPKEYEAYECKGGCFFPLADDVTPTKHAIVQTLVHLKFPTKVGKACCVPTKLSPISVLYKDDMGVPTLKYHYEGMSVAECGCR

[9] = target: T6, activin B (UniProt P09529); assay: SPR (Biacore), FIG. 15
T6 sequence (looked up): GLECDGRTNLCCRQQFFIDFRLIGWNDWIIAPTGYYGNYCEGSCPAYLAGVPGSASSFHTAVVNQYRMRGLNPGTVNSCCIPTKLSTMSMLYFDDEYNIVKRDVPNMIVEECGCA

[10] = target: BMP6 (UniProt P22004); assay: SPR (Biacore), FIG. 12
[11] = target: T1, GDF8; assay: SPR (Biacore), FIG. 12
[12] = target: T2, GDF11; assay: SPR (Biacore), FIG. 12
[13] = target: BMP6 (UniProt P22004); assay: SPR (Biacore)
[14] = target: T1, GDF8; assay: SPR (Biacore)
[15] = target: T2, GDF11; assay: SPR (Biacore)
[16] = target: T3, GDF3; assay: SPR (Biacore)
[17] = target: T4, BMP10; assay: SPR (Biacore)
[18] = target: BMP5 (UniProt P22003); assay: SPR (Biacore)
[19] = target: T5, BMP9; assay: SPR (Biacore)
[20] = target: T6, activin B; assay: SPR (Biacore)
[21] = target: T4, BMP10; assay: SPR (Biacore), FIG. 53
[22] = target: T4, BMP10; assay: Biacore (SPR), ligands ranked by off-rate koff
[23] = target: T7, BMP15 (UniProt O95972); assay: Biacore (SPR), ligands ranked by off-rate koff
T7 sequence (looked up): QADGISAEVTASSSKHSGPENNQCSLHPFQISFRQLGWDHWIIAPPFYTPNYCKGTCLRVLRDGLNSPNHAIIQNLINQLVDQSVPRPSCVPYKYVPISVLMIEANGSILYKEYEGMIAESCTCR

Measured: binding

B1: ALK4-Fc homodimer, P36896 24-126 (Fc fusion, not shown: a dimerising Fc or GST)
chain: SGPRGVQALLCACTSCLQANYTCETDGACMVSIFNLDGMEHHVRTCIPKVELVPAGKPFYCLSSEDLRNTHCCYTDYCNRIDLRVPSGHLKEPEHPSMWGPVE
binds: [1]

B2: ActRIIB-Fc homodimer (Fc fusion, not shown: a dimerising Fc or GST)
chain: SGRGEAETRECIYYNANWELERTNQSGLERCEGEQDKRLHCYASWRNSSGTIELVKKGCWLDDFNCYDRQECVATEENPQVYFCCCEGNFCNERFTHLPEAGGPEVTYEPPPTAPTLLT
binds: [2] | [3] | [4] | [5] | [6] | [7] | [8] | [9] | [10] | [11] | [12] | [13] | [14] | [15] | [16] | [17] | [18] | [19] | [20]

B3: BMPRII-Fc homodimer (Fc fusion, not shown: a dimerising Fc or GST)
chain: SQNQERLCAFKDPYQQDLGIGESRISHENGTILCSKGSTCYGLWEKSKGDINLVKQGCWSHIGDPQECHYEECVVTTTPPSIQNGTYRFCCCSTDLCNVNFTENFPPPDTTPLSPPHSFNRDET
binds: [21] | [22] | [23]
